Among the data in PMC13631264 are binding values, retold here.

Protein sequences, listed by entry. Tags and fused reporters are not part of them. Lines headed by an entry give the natural chain unless they say otherwise; changes in a name come on top. Residues count along the entry.
UniProt P15208, residues 28-1372: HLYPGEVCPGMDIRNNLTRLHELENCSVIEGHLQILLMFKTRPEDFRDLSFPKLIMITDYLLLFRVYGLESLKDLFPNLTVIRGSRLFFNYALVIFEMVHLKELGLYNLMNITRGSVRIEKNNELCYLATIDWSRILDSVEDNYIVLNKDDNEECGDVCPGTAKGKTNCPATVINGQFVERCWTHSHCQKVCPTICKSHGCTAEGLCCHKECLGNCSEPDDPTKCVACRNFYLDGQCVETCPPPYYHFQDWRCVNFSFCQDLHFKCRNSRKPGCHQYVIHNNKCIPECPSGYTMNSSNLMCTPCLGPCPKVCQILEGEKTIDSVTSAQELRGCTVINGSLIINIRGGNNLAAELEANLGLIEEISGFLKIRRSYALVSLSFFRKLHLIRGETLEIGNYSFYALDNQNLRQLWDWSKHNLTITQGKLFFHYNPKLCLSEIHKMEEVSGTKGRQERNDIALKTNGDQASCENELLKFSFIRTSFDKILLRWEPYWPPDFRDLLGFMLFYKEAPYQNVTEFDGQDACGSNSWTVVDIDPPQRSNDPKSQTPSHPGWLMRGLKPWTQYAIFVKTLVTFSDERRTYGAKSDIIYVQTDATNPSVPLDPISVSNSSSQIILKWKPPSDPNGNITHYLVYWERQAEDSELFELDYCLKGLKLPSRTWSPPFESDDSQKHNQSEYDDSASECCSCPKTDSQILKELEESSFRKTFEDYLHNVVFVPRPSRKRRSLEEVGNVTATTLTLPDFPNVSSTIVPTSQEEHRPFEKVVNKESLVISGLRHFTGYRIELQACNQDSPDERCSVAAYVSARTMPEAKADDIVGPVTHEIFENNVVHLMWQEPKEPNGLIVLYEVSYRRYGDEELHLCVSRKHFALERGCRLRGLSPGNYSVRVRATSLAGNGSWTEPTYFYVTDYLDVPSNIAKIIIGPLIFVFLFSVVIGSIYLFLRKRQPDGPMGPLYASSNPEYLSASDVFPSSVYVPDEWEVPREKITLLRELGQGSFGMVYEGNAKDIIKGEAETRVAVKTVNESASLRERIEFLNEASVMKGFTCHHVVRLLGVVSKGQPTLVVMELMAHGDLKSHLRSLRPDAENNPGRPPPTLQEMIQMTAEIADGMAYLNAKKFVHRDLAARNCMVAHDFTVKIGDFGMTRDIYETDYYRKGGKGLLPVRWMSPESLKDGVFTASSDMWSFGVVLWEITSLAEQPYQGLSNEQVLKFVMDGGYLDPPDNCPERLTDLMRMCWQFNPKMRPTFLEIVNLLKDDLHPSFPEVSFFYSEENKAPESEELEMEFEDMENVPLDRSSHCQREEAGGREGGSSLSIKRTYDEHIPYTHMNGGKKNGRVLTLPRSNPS
UniProt P06213, residues 28-1382: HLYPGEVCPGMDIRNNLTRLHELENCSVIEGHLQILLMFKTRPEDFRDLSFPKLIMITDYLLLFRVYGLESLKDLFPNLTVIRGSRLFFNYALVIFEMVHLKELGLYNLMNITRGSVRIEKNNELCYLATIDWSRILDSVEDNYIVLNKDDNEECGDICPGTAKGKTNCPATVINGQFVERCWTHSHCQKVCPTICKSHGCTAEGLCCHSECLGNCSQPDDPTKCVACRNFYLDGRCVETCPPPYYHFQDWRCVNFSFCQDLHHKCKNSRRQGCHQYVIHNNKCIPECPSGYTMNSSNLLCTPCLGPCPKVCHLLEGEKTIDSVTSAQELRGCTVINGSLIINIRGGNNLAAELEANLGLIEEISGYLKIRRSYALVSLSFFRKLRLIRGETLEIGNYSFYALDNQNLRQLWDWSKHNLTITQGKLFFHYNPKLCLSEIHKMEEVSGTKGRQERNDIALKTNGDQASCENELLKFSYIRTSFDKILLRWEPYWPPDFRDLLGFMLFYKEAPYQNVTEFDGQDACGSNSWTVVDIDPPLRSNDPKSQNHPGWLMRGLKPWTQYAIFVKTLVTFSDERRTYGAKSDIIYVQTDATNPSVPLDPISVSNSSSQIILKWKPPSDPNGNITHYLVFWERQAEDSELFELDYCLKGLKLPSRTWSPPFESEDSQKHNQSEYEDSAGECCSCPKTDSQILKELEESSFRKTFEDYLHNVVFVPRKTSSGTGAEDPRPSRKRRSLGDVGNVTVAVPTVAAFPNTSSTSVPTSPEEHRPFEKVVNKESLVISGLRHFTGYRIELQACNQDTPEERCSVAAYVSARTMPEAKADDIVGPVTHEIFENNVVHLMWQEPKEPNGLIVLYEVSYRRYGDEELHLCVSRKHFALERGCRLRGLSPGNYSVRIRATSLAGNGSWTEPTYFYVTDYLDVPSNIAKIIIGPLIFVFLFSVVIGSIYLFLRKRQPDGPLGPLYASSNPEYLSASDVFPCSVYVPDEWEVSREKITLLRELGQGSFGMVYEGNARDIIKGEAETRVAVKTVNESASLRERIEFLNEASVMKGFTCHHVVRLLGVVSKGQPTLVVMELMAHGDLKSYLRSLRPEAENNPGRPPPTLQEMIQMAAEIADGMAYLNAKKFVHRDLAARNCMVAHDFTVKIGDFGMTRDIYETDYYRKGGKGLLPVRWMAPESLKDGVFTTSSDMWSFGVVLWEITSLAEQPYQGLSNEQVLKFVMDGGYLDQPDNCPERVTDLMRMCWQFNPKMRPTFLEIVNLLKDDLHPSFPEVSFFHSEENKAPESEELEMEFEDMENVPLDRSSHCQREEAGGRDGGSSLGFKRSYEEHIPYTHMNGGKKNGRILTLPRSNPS
UniProt Q9WTX6: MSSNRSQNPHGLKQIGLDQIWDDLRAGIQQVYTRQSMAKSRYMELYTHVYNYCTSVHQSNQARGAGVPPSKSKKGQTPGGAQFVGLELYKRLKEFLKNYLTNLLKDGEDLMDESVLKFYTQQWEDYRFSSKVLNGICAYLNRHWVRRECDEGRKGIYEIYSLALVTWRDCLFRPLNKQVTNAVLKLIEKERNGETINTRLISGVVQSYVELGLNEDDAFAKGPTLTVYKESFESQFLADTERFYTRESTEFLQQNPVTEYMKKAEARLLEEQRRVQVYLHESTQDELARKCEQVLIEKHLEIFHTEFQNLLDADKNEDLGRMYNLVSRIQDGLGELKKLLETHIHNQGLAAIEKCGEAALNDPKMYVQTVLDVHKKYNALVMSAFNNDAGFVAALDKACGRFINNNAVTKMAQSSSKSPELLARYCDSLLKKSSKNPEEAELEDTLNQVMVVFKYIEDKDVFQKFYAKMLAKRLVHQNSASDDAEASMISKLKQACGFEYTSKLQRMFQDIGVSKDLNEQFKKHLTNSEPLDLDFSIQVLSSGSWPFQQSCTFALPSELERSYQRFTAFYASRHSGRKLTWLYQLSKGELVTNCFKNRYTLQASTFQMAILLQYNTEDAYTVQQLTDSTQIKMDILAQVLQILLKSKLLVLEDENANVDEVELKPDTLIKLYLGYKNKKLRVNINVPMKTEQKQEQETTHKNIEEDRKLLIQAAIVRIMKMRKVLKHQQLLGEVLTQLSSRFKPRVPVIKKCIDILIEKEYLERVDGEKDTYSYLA

One assay deals with T1, FBXO2-Flag (1-297) (UniProt Q80UW2).
T1 sequence: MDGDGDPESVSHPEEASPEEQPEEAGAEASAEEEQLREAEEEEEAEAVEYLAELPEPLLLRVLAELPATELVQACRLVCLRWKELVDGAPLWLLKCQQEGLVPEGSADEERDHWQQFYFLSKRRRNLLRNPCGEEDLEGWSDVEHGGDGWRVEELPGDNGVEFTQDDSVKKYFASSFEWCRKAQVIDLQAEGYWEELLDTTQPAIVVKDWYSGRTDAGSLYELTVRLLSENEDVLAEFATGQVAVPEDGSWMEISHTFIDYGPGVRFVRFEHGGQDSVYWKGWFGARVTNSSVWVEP
Briefly: co-IP; Western blot of the Flag-peptide eluate of the anti-FLAG purification from HEK293T cells transfected with IR-Flag (Fig. S2A) or FBXO2-Flag (Fig. S2C). In general terms: Immunoblotting shows a protein as a band on a membrane.

Assay [1] deals with insulin receptor (endogenous, mouse) (mouse (endogenous in 3T3-L1 and in mouse sWAT)) (UniProt P15208). Briefly: co-IP; whole cell lysates from 3T3-L1 cells, immunoprecipitated and immunoblotted with antibodies against the indicated proteins; Pierce IP kit.
The target in assay [2] is IR-Flag (insulin receptor with Flag tag) (UniProt P15208). Briefly: co-IP; Western blot of the Flag-peptide eluate of the anti-FLAG purification from HEK293T cells transfected with IR-Flag (Fig. S2A) or FBXO2-Flag (Fig. S2C).
Assay [3] has as its target insulin receptor (endogenous, mouse) (mouse (endogenous in 3T3-L1 and in mouse sWAT)) (UniProt P15208). Briefly: co-IP; subcutaneous white adipose tissue of mice; Pierce IP kit.
The target in assay [4] is insulin receptor in 293T cells (Co-IP of Fig. S2B) (UniProt P15208). In words: co-IP; 293T cells (Fig. S2B); constructs not told.

These are yes or no findings as the source states them, for the method shown. Binding seen in cells or lysates may run through a third protein. Some binding calls cover weakened binding; strength is not graded here. For part of these data: Where a sequence is shown, tags or fusion partners need not be part of it.

As for “insulin receptor (endogenous in HEK293T cells) (from UniProt P06213 28-1382)”, the binding entry with FBXO2-Flag (1-297) is listed as “binds”.

As to “Cullin1 (endogenous in 3T3-L1 cells) (from UniProt Q9WTX6 1-776)”, in assay [1], the binding entry is listed as “binds”.

B1: FBXO2 (endogenous in HEK293T cells) (protein, UniProt Q9UK22 1-296)
chain: MDGDGDPESVGQPEEASPEEQPEEASAEEERPEDQQEEEAAAAAAYLDELPEPLLLRVLAALPAAELVQACRLVCLRWKELVDGAPLWLLKCQQEGLVPEGGVEEERDHWQQFYFLSKRRRNLLRNPCGEEDLEGWCDVEHGGDGWRVEELPGDSGVEFTHDESVKKYFASSFEWCRKAQVIDLQAEGYWEELLDTTQPAIVVKDWYSGRSDAGCLYELTVKLLSEHENVLAEFSSGQVAVPQDSDGGGWMEISHTFTDYGPGVRFVRFEHGGQDSVYWKGWFGARVTNSSVWVEP
For B1, the binding result in assay [2] is given as “binds”.

B2: FBXO2 (endogenous, mouse) (protein, UniProt Q80UW2 1-297)
chain: MDGDGDPESVSHPEEASPEEQPEEAGAEASAEEEQLREAEEEEEAEAVEYLAELPEPLLLRVLAELPATELVQACRLVCLRWKELVDGAPLWLLKCQQEGLVPEGSADEERDHWQQFYFLSKRRRNLLRNPCGEEDLEGWSDVEHGGDGWRVEELPGDNGVEFTQDDSVKKYFASSFEWCRKAQVIDLQAEGYWEELLDTTQPAIVVKDWYSGRTDAGSLYELTVRLLSENEDVLAEFATGQVAVPEDGSWMEISHTFIDYGPGVRFVRFEHGGQDSVYWKGWFGARVTNSSVWVEP
For B2, the binding result in assay [3] and in assay [1] was “binds” in each case.

B3: FBXO2 in 293T cells (Co-IP of Fig. S2B) (protein, UniProt Q80UW2 1-297)
chain: MDGDGDPESVSHPEEASPEEQPEEAGAEASAEEEQLREAEEEEEAEAVEYLAELPEPLLLRVLAELPATELVQACRLVCLRWKELVDGAPLWLLKCQQEGLVPEGSADEERDHWQQFYFLSKRRRNLLRNPCGEEDLEGWSDVEHGGDGWRVEELPGDNGVEFTQDDSVKKYFASSFEWCRKAQVIDLQAEGYWEELLDTTQPAIVVKDWYSGRTDAGSLYELTVRLLSENEDVLAEFATGQVAVPEDGSWMEISHTFIDYGPGVRFVRFEHGGQDSVYWKGWFGARVTNSSVWVEP
As to B3, in assay [4], the binding entry is recorded as “binds”.
